From publication PMC12040169 (PLOS Biology, 2025) come the findings set out here.

Some of the results follow.

The experiment relates to T1, CTL2-GFP (C. trachomatis L2/434/Bu, GFP-expressing).
T1 construct: L2/434/Bu, GFP-expressing
Also noted: species or system HeLa; Intracellular C. trachomatis growth in HeLa cells, bulk GFP fluorescence relative to DMSO. The conditions noted are these: bulk GFP, single well; 28.5 h, 10 µM; inhibitor.
As for `COCOc1ccc(-c2ncc(OCCN3CCOCC3)nc2N)cc1` [CBK145100], the “% of control remaining” value is 100%. With `O=C(Nc1cncc(OC2CCNCC2)n1)c1cccnc1` [CBK036375T], the “% of control remaining” value worked out at 110.046%.

`Cc1nc(C2CCCCN2C(=O)C2CCCCC2)ncc1C(=O)NCc1ccc(F)cc1` (stereo not shown) [CBK285554]: the “% of control remaining” value is given as 138.832%. For `O=S(=O)(c1ccc2ccccc2c1)N1CCN(CCCOc2ccccc2Cl)CC1` [CBK267018], the “% of control remaining” value amounted to 141.684%.

On to `COc1cc(-c2nnc(CSc3nc4sc(C(=O)O)c(C)c4c(=O)[nH]3)o2)cc(OC)c1OC` [CBK296973], for which the “% of control remaining” value was found to be 146.884%. Consider `COc1ccc(Sc2nc(SC)nc(-c3ccccc3)c2C#N)cc1` [CBK291212], for which the “% of control remaining” value is recorded as 98.5798%. In the case of `CCCc1nnc2sc(C3CCC(=O)N(C(C)C)C3)nn12` (stereo not shown) [CBK306942], the “% of control remaining” value amounted to 103.712%. Consider `Cc1nc(CN2CCC(Oc3nccnc3OCc3ccc(Cl)c(Cl)c3)CC2)cs1` [CBK153787], for which the “% of control remaining” value was 102.467%.

For `Cc1cc(I)ccc1NC(=O)CCN1C(=O)c2cccc([N+](=O)[O-])c2C1=O` [CBK263128], the “% of control remaining” value is 100%. The figure for `Nc1c(C(F)(F)F)cc(Cl)nc1Cl` [CBK005620] is 105.039%. Regarding `O=c1ccc2c(-c3ccsc3)ccnc2[nH]1` [CBK073724], the “% of control remaining” value amounted to 122.653%.

Consider `c1ccc(CNc2nc(-c3ccsc3)cn3ccnc23)cc1` [CBK037868], for which the “% of control remaining” value turned out to be 140.224%.

For `Cn1cnc(C(=O)N2CCC[C@@H]3NC(=O)c4ccccc4OCCCCC[C@@H]32)c1` [CBK292122], the “% of control remaining” value turned out to be 85.6683%. On to `COc1cc(C=Cc2cc(C(=O)O)c3ccccc3n2)cc(Cl)c1OC(C)C` [CBK296941], for which the “% of control remaining” value stood at 152.256%. Regarding `Cc1cc(CN2CCC(N(C)Cc3nnc(C)n3C)C2)no1` (stereo not shown) [CBK305088], the “% of control remaining” value was 120.576%. On to `CN(C)CCN(Cc1cccnc1)C(=O)C1(c2ccccc2F)CC1` [CBK282771], for which the “% of control remaining” value came to 82.4467%. With `FC(F)(F)c1ccc(Sc2ccncc2)nc1` [CBK115217], the “% of control remaining” value amounted to 103.733%. For `OCCN1CCN(C(c2ccccc2)c2sc3ncnn3c2O)CC1` (stereo not shown) [CBK287611], the “% of control remaining” value was found to be 141.366%. The result for `CC(=O)/N=c1\[nH]c(NC(C)=O)nn1-c1ccccc1` [CBK287938] reads 151.824%; that for `Cc1ccccc1Cn1c(CN2CCCCC2C)nc2c1c(=O)n(C)c(=O)n2C` (stereo not shown) [CBK269199], 144.642%; that for `Cc1ccccc1NC(=O)c1c(NC(=O)Cc2ccccc2)sc2c1CCCC2` [CBK262572], 90.3452%.

Consider `CC(C)OC(=O)CCNC(=O)c1cccc(S(=O)(=O)N2CCCC2)c1` [CBK306090], for which the “% of control remaining” value worked out at 163.496%. In the case of `CC(=O)NCCN1CCC(O)(c2ccc(C)cc2)CC1` [CBK283321], the “% of control remaining” value stood at 134.701%.

`O=[N+]([O-])c1ccc(N2CCN(Cc3ccccc3)CC2)cc1NCc1ccccc1` [CBK045841]: the “% of control remaining” value amounted to 107.968%. The result for `COc1ccc(CN(C(=O)c2cccc(-n3cnnn3)c2)C2CC2)cc1` [CBK256997] reads 125.997%; that for `Cc1ccc(O)c(NC(=O)c2ccccc2-c2ccccc2C(=O)O)c1` [CBK266763], 182.592%.

For the compound `O=C(O)CSc1nc2ccccc2n2cnnc12` [CBK269831], the “% of control remaining” value was found to be 146.035%. The figure for `Cc1nn(CC(=O)NC2CC2)c(=O)c2cc3sccc3n12` [CBK284047] is 138.405%; for `CCCC1=NNC(=O)C1Cc1c(F)cccc1Cl` (stereo not shown) [CBK067753] it is 108.328%; for `COc1ccc(-c2cc(C(=O)NCCc3cccc(C(F)(F)F)c3)cnc2-c2ccccc2)cn1` [CBK036662] it is 149.249%.

As for `O=C(O)Cc1ccc(NS(=O)(=O)c2ccc(F)cc2)cc1` [CBK269981], the “% of control remaining” value is 110.283%. The figure for `CN(CC1(C)COC1)C(=O)CCc1nc2ccccc2[nH]1` [CBK281719] is 106.287%; for `CNCCOc1ccccc1O` [CBK023215C] it is 107.221%; for `O=C(O)CC(C(=O)O)N1C(=O)/C(=C\C(Cl)=C/c2ccc([N+](=O)[O-])cc2)SC1=S` (stereo not shown) [CBK261013] it is 100%. The figure for `CCOC(=O)c1cnc2ccc(Cl)cc2c1N1CCOCC1` [CBK307627] is 116.648%. With `OCCN1CC2(CCN(CCC(c3ccccc3)c3ccccc3)CC2)c2ccccc21` [CBK126765], the “% of control remaining” value amounted to 100.027%. `O=C(CN1CCCC(c2cccc(Cc3ccc(F)cc3)n2)C1)Nc1nccs1` (stereo not shown) [CBK286503]: the “% of control remaining” value came out at 91.1107%.

`CCn1cc(CN2CCCN(C(=O)c3cccn(C)c3=O)CC2)cn1` [CBK305375]: the “% of control remaining” value is 125.553%. The result for `COc1ccc([N+](=O)[O-])cc1NC(=O)c1cc(Cl)c(OC)c(Cl)c1` [CBK268594] reads 102.789%; that for `COc1ccc(Cc2nnc(Nc3ccc(OC)cc3)[nH]c2=O)cc1` [CBK287385], 126.351%; that for `O=C(CCN1CCN(Cc2ccccc2)CC1)Nc1ccc(F)cc1` [CBK264261], 80.0601%.

With `CO[C@@H](C(=O)Nc1cnc(-c2cccc(C)c2)c(-c2ccco2)n1)c1ccccc1` [CBK037613], the “% of control remaining” value turned out to be 140.001%.

As to `CCOC(=O)C1CCN(C(=O)Cn2cnc3ccc(Br)cc3c2=O)CC1` [CBK306070], the “% of control remaining” value was found to be 76.1103%. Consider `OC1(C2CNc3ccccc3C2)CCNCC1` (stereo not shown) [CBK283847], for which the “% of control remaining” value is 102.438%. On to `CC(C)C(CNCc1ccsc1)c1ccnn1C` (stereo not shown) [CBK304821], for which the “% of control remaining” value is 92.3342%. In the case of `COc1ccc(NC(=O)c2sc(Cl)nc2C)cc1` [CBK057902], the “% of control remaining” value worked out at 105.257%. The result for `CC(C)[C@@H](CO)Nc1nccnc1-c1cccs1` [CBK089024] reads 163.003%.

For the compound `Clc1ccc(CN2CCN(c3nccnc3OCCN3CCOCC3)CC2)cc1Cl` [CBK082884T], the “% of control remaining” value is listed as 122.601%. The figure for `CC(=O)NC(CSc1cc(C)nc2ccccc12)C(=O)O` (stereo not shown) [CBK286755] is 129.437%. The result for `CSc1nnc(N(C)S(=O)(=O)c2ccc(C)cc2)s1` [CBK155272] reads 113.545%; that for `COc1n[nH]c(CO)c1Cc1c(Cl)cccc1Cl` [CBK092283T], 94.6716%.

Regarding `CC1CCCC(C)N1CC(O)COCc1ccc2c(c1)OCO2` (stereo not shown) [CBK263134C], the “% of control remaining” value is listed as 100%.
